The target in assay [1] is T1, NCAPD3 (human (endogenous in HT-29 and RPE-1)) (UniProt P42695).
T1 sequence: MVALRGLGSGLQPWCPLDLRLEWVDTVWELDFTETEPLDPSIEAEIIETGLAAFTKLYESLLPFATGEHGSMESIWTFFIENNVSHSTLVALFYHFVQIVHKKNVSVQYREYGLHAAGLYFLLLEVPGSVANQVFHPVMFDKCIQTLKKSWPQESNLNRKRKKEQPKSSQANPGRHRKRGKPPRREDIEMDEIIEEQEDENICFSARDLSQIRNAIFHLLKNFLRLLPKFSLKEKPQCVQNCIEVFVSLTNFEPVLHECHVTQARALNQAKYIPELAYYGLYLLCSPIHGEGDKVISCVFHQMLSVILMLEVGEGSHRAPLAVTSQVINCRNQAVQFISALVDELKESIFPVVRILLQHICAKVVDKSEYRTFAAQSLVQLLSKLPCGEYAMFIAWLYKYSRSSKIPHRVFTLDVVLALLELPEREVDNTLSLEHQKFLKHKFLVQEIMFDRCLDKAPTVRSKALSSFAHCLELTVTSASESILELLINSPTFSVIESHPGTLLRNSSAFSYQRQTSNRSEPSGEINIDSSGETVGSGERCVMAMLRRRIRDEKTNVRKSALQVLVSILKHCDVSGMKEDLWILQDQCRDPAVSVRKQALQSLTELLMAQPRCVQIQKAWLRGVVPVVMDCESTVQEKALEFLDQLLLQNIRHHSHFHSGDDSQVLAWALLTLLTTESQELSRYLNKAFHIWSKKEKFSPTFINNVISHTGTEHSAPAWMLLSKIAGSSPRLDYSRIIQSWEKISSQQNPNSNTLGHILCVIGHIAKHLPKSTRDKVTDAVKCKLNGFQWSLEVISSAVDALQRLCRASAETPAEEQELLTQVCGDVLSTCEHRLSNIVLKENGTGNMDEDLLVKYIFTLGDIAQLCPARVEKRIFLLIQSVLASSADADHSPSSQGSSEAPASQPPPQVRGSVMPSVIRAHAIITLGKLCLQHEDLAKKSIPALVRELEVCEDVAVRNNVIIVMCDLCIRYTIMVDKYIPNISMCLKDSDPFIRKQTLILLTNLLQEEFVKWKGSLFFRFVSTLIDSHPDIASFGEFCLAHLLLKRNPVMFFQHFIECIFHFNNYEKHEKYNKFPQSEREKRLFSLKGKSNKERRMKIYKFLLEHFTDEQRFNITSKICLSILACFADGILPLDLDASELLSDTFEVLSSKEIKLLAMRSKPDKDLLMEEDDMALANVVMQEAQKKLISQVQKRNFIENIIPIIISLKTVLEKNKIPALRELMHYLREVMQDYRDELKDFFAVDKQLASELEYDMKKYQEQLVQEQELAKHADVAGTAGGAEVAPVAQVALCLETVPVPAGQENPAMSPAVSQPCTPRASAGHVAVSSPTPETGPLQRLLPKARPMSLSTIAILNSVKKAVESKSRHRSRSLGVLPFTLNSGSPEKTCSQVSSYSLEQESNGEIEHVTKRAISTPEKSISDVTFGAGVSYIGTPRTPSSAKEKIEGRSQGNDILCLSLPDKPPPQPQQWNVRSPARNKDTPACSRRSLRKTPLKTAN
Kind of assay: co-IP; endogenous proteins in HT-29 whole cell lysates, immunoblot; antibody only (no lysate) and IgG IPs as negative controls; for NCAPD3 with EPRS, cells induced to express NT shRNA or NCAPD2 shRNA; done as described previously (ref. 31).

Sequences of proteins named here, by UniProt entry; tags and fusion partners are left off.
UniProt P07814: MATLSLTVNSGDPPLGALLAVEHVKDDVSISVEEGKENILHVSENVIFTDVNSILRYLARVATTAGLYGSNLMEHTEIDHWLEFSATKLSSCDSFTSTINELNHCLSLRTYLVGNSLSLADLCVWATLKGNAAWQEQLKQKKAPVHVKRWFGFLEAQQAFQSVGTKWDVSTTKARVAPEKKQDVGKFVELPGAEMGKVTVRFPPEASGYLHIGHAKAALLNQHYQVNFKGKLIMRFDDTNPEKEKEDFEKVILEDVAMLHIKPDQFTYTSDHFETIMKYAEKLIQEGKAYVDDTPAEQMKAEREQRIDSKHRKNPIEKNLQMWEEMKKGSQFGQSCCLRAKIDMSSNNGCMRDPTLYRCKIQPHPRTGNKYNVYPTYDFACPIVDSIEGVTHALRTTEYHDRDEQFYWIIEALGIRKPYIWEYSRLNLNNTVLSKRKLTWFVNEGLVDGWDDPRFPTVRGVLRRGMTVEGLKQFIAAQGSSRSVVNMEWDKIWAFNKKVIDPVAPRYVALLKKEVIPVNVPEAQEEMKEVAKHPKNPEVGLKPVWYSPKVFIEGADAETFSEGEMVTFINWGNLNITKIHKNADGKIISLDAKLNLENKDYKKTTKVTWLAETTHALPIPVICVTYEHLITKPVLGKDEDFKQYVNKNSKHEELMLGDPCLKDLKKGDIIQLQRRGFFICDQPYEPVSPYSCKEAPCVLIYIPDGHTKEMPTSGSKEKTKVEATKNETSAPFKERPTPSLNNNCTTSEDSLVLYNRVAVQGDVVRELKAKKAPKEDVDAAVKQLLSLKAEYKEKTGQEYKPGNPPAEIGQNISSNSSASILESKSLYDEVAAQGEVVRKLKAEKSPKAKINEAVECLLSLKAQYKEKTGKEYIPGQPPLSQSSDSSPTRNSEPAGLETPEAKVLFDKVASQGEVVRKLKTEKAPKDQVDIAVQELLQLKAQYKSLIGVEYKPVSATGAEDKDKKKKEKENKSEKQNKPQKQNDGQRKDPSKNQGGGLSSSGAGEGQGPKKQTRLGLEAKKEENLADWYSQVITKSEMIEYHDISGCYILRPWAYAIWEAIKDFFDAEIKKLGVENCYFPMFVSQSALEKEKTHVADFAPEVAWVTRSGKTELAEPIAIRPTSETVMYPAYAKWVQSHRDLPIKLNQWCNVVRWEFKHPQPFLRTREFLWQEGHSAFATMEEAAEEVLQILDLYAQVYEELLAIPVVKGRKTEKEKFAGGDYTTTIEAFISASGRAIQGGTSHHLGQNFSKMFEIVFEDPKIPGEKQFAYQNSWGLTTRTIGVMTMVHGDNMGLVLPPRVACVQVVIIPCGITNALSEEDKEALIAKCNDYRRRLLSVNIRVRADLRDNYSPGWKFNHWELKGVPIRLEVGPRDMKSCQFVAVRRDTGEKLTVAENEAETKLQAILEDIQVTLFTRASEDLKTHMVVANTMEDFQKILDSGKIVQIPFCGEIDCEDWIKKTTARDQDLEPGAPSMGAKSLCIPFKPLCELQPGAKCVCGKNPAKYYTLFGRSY
UniProt Q15021: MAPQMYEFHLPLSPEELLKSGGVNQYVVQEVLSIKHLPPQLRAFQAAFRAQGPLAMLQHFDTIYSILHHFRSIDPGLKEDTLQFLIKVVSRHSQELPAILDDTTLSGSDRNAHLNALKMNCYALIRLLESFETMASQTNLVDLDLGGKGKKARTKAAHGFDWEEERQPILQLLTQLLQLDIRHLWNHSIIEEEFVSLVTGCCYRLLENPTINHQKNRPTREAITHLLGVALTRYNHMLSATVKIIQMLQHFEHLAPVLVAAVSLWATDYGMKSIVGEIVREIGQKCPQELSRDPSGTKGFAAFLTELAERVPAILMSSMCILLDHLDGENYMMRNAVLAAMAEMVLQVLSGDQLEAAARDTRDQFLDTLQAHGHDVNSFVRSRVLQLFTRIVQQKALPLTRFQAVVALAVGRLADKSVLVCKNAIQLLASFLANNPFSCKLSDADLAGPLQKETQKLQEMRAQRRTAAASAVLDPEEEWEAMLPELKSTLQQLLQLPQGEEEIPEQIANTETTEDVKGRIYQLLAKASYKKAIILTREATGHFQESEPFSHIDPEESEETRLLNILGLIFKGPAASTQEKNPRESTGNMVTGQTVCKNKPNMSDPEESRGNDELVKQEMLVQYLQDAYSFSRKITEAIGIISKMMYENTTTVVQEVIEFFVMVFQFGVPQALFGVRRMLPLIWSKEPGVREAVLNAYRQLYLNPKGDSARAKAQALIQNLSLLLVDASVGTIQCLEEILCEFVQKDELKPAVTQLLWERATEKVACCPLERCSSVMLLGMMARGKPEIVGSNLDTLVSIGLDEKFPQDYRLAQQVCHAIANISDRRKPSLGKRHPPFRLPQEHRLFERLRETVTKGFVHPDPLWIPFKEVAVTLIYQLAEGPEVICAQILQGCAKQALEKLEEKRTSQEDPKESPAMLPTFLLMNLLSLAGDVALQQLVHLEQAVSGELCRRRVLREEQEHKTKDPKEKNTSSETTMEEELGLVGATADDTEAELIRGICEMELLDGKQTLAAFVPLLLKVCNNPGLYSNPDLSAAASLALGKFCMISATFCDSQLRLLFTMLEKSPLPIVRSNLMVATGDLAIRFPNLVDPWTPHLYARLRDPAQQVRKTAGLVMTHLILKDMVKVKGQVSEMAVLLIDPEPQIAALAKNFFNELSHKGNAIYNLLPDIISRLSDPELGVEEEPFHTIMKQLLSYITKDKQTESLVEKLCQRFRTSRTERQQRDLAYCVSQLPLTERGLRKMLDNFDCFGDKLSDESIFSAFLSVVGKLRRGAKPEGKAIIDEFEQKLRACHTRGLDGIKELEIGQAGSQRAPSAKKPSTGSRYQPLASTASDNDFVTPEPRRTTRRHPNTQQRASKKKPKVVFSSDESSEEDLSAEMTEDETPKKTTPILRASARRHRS

For assay [2], the target named is EPRS (human (endogenous in HT-29)) (UniProt P07814). The assay is described as above.
The target in assay [3] is T2, NCAPG2 (human (endogenous in HT-29)) (UniProt Q86XI2).
T2 sequence: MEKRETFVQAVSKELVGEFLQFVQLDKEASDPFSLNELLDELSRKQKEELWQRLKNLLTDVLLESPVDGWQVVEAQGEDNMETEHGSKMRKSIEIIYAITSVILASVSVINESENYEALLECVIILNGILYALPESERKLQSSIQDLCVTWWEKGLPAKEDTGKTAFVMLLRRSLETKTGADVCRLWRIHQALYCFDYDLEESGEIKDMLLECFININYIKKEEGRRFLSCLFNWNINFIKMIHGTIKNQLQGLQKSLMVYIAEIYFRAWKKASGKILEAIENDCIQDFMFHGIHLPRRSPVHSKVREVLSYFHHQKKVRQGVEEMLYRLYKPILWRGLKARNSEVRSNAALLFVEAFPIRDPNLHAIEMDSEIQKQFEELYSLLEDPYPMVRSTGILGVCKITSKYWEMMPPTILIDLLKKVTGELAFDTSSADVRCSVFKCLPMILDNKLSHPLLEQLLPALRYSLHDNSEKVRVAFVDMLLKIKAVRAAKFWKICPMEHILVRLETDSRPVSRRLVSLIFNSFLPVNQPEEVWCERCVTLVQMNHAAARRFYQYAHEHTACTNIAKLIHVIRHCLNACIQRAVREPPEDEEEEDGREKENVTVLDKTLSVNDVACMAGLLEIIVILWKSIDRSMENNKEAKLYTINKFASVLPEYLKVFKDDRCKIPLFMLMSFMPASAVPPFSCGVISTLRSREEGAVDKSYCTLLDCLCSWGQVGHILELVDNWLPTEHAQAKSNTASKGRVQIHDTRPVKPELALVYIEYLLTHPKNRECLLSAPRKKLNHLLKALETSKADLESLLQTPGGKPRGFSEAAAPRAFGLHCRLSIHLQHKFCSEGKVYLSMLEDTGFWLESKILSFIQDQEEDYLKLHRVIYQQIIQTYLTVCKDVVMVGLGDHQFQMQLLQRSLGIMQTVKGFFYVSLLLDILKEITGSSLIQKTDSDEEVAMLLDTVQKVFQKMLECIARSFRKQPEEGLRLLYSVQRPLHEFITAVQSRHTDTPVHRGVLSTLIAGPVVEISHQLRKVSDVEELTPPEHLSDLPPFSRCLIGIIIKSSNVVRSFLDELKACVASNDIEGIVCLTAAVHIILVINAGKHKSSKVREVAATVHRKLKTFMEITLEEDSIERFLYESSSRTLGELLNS
The description is as above.

Assay [4] deals with T1, NCAPD3 (human (endogenous in HT-29 and RPE-1)). Kind of assay: co-IP; endogenous proteins in lysates of RPE-1 cells transfected with the pJM101/L1.3 expression vector, immunoblot; antibody only (no lysate) and IgG IPs as controls.
Assay [5] has the same target. Kind of assay: proximity ligation; DuoLink PLA on fixed, permeabilised HT-29 cells with NCAPD3 (rabbit) and NCAPD2 (mouse) antibodies; nuclear and cytoplasmic foci per cell counted; cells transfected with siCTRL or siL1, treated with DMSO or 50 uM Didanosine and Zidovudine, or transfected with pCEP4, pJM101/L1.3 or pJM101/L1.3 3'UTR deletion.
The target is the same in assay [6]. Kind of assay: condition: only RPE-1 cells transfected with the pCEP4 empty vector (no L1 expression vector); co-IP; endogenous proteins in lysates of RPE-1 cells transfected with the pCEP4 empty vector, immunoblot; antibody only (no lysate) and IgG IPs as controls.
For assay [7], the target named is NCAPD2 (human (endogenous in HT-29 and RPE-1)) (UniProt Q15021). Kind of assay: co-IP; endogenous proteins in HT-29 whole cell lysates, immunoblot; antibody only (no lysate) and IgG IPs as negative controls; for NCAPD3 with EPRS, cells induced to express NT shRNA or NCAPD2 shRNA; done as described previously (ref. 31).

These are yes or no findings as the source states them, for the method shown. Binding seen in cells or lysates may run through a third protein. Some binding calls cover weakened binding; strength is not graded here.

In the case of NCAPD2 (from UniProt Q15021 1-1401), the binding result in assay [1] is “binds”; in assay [2], “binds”; in assay [3], “binds”; in assay [4], “binds”; in assay [5], “binds”; in assay [6], “no binding”.

B1: NCAPD3 (protein, UniProt P42695 1-1498)
chain: T1 sequence
Consider B1, for which the binding entry in assay [7] and in assay [2] was “binds” in each case.

These data come from publication PMC9561375.
